Measurements as given in patent EP0912195B1, “VACCINE COMPRISING ANTIGENS BOUND TO CARRIERS THROUGH LABILE BONDS” (PEPSCAN SYSTEMS B.V., priority 1996, dated 1997).
Several values for one entry are separate records, joined by “and”; a condition that tells them apart may be missing. Identical values can stand only once. Like-named read-outs stand apart in the source and are kept apart here. At least one peptide structure holds a part that was inferred or is arguable (an end, a ring closure or a residue). Residues, ends and D or L forms follow the SMILES beside them. *: point of attachment. Palmitoyl = CCCCCCCCCCCCCCCC(=O)*; Cam = NC(=O)C*

Columns and labels:
guinea pigs [1] = system: guinea pigs; parameters: key to titer 4 wpv / titer 8 wpv: - no detectable titer, lowest dilution measured was 1/30; settings: guinea pig, in vivo
guinea pigs [2] = settings: guinea pig, in vivo

SMILES | titer 4 wpv (guinea pigs [1]) | titer 8 wpv (guinea pigs [1]) | titer 8 wpv (guinea pigs [2]) | titer 16wpv (guinea pigs [2]) | antibody titer, times higher than the titer obtained with the N-palmitoylated peptide (guinea pigs [1]) [times]
CC(=O)N[C@@H](CSCC(N)=O)C(=O)N[C@@H](CO)C(=O)N[C@@H](CC(=O)O)C(=O)NCC(=O)N[C@@H](C)C(=O)N[C@H](C(=O)N[C@@H](CCC(N)=O)C(=O)N1CCC[C@H]1C(=O)N[C@@H](CC(=O)O)C(=O)NCC(=O)NCC(=O)N[C@@H](CCC(N)=O)C(=O)N1CCC[C@H]1C(=O)N[C@@H](C)C(=O)N[C@H](C(=O)N[C@@H](CCCNC(=N)N)C(=O)N[C@@H](CC(N)=O)C(=O)N[C@@H](CCC(=O)O)C(=O)N[C@@H](CCCNC(=N)N)C(=O)N[C@@H](C)C(=O)N[C@H](C(=O)NCC(N)=O)[C@@H](C)O)C(C)C)C(C)C [G, reference compound] (Ac-C(Cam)SDGAVQPDGGQPAVRNERATG-NH2) | - | - |  |  | 
CCCCCCCCCCCCCCCC(=O)SC[C@H](NC(C)=O)C(=O)N[C@@H](CO)C(=O)N[C@@H](CC(=O)O)C(=O)NCC(=O)N[C@@H](C)C(=O)N[C@H](C(=O)N[C@@H](CCC(N)=O)C(=O)N1CCC[C@H]1C(=O)N[C@@H](CC(=O)O)C(=O)NCC(=O)NCC(=O)N[C@@H](CCC(N)=O)C(=O)N1CCC[C@H]1C(=O)N[C@@H](C)C(=O)N[C@H](C(=O)N[C@@H](CCCNC(=N)N)C(=O)N[C@@H](CC(N)=O)C(=O)N[C@@H](CCC(=O)O)C(=O)N[C@@H](CCCNC(=N)N)C(=O)N[C@@H](C)C(=O)N[C@H](C(=O)NCC(N)=O)[C@@H](C)O)C(C)C)C(C)C [compound E] (Ac-C(Palmitoyl)SDGAVQPDGGQPAVRNERATG-NH2) | 2.5 and 4.0 and 3.1 | 2.5 and 3.3 and 3.4 | 3.0 and 3.5 and 2.4 | 4.0 and 4.6 and 2.5 | ~100
